Results on 1 substance are retold here after paper PMC9616502.

By UniProt entry, the sequences of proteins in these tests, tags left out.
UniProt G3X9G7: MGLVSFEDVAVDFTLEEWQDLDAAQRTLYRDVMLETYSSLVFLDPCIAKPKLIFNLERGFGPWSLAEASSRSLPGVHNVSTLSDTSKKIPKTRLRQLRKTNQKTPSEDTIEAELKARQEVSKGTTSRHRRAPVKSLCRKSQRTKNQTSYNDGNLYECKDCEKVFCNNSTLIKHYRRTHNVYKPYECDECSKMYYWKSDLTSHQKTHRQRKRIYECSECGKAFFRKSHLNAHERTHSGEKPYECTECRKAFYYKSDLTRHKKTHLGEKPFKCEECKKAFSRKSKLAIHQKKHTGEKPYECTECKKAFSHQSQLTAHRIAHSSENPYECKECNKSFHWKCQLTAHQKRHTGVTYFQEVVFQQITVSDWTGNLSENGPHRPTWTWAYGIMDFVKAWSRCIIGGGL
UniProt Q13263: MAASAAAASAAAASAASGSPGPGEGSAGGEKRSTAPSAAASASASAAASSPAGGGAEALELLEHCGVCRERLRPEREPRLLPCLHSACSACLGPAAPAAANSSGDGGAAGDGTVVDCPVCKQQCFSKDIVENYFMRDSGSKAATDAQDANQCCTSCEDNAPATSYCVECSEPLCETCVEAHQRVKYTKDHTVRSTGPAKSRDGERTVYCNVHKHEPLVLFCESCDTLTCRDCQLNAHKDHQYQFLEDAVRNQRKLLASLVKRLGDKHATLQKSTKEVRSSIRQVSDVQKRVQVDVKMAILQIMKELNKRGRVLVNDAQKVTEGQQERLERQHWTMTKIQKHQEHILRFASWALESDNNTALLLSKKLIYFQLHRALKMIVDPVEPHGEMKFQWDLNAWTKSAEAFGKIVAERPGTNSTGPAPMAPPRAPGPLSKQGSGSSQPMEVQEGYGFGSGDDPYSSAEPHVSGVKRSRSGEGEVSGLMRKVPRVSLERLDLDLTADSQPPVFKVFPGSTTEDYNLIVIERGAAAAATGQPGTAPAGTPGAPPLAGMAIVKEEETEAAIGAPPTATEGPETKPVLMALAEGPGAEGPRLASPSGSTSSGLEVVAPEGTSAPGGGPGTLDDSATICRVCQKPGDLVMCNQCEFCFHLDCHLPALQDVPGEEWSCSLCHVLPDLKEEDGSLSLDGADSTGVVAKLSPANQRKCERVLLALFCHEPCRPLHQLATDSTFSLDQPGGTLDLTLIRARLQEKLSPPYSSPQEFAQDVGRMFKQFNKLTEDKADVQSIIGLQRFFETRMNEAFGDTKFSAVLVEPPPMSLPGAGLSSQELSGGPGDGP

For the assay, the target named is ZFP809, HA-tagged (UniProt G3X9G7). The assay can be described thus: co-IP; HEK293T cells transfected with HA-tagged ZFP plasmids, lysed on day 2 in 0.1% NP-40 buffer (50 mM tris-HCl pH 7.5, 150 mM NaCl, 10% glycerol, protease inhibitors); immunoprecipitated on anti-HA magnetic beads at 4°C overnight; Western blot for TRIM28. (Immunoblotting shows a protein as a band on a membrane.)

These are yes or no findings as the source states them, for the method shown. In cells and extracts the contact can be indirect. Some results given as binding are weak or reduced against the parent protein; the word gives no strength.

On to “KRAB-associated protein 1 (TRIM28) (from UniProt Q13263 1-835)”, for which the binding result is “binds”.
